Values quoted from earlier work, collected in patent US4021563A, “Method of treating cardiac arrhythmia with γ-piperidino-butyrophenones” (priority 1975, dated 1977).

Test system: cardiac arrhythmia
Details: cited from earlier work

## CCN(CC)CC(=O)Nc1c(C)cccc1C [Lidocaine, lidocaine]
  antiarrhythmic properties / activity of prior art compounds: activity as antiarrhythmic agents
  toxic effects of prior art antiarrhythmic drugs: various toxic effects
